Taken from: PubChem BioAssay AID602196 (INSERM, 2012)
The whole screen tested about 23,000 reagents; below is a random part of them. Of all reagents, 455 (2%) got an active call. 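Active includes both protection and sensitisation; some change values fall well beyond the stated -50 to +50 range.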 Not all columns of the deposit are shown. Not stated in the record: the amount of reagent.

Test: 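Genes whose knock-down alters cisplatin killing of lung cancer cells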
Cells: human A549 lung cancer cells
Reagent: siRNA pair against human genes
Time to read-out: 48 h transfection before cisplatin; time from cisplatin to read-out not stated
Treatment: cisplatin at a dose killing half of control-siRNA cells; exact dose and duration not given
Read-out: 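Shift in cisplatin death relative to control siRNA, from -50 (all cells die) to +50 (no cells die); siRNAs harmful on their own scored 0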
Scale: two-siRNA summed score (-2 to +2): higher = both siRNAs protect from cisplatin killing; -2 means both sensitise
Active means: 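Each siRNA scores 0 if harmful alone by LDH or WST-1, otherwise +1 if it reduces and -1 if it increases cisplatin killing; a gene is active when both siRNAs agree (sum +2 or -2)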
Meaning of the calls: active = both siRNAs shift cisplatin killing the same way; inactive = no consistent shift, or siRNA harmful alone

The first 2 entries, ahead of the listing:
{"gene symbol": "TNFAIP2 (TNF alpha induced protein 2)", "PubChem SID": "SID131520288", "two-siRNA summed score (-2 to +2)": 1, "Outcome": "inactive"}
{"gene symbol": "WDR53 (WD repeat domain 53)", "PubChem SID": "SID131505900", "two-siRNA summed score (-2 to +2)": 0, "Outcome": "inactive"}

Results, from the first entry:
{"gene symbol": "TNFAIP2 (TNF alpha induced protein 2)", "PubChem SID": "SID131520288", "two-siRNA summed score (-2 to +2)": 1, "Outcome": "inactive"}
{"gene symbol": "WDR53 (WD repeat domain 53)", "PubChem SID": "SID131505900", "two-siRNA summed score (-2 to +2)": 0, "Outcome": "inactive"}
{"gene symbol": "PCDH9 (protocadherin 9)", "PubChem SID": "SID131515732", "two-siRNA summed score (-2 to +2)": 0, "Outcome": "inactive"}
{"gene symbol": "MTMR14 (myotubularin related protein 14)", "PubChem SID": "SID131502502", "two-siRNA summed score (-2 to +2)": -1, "Outcome": "inactive"}
{"gene symbol": "CIBAR1 (CBY1 interacting BAR domain containing 1)", "PubChem SID": "SID131511094", "two-siRNA summed score (-2 to +2)": 0, "Outcome": "inactive"}
{"gene symbol": "KCNT2 (potassium sodium-activated channel subfamily T member 2)", "PubChem SID": "SID131504807", "two-siRNA summed score (-2 to +2)": 0, "Outcome": "inactive"}
{"gene symbol": "TEK (TEK receptor tyrosine kinase)", "PubChem SID": "SID131521939", "two-siRNA summed score (-2 to +2)": 1, "Outcome": "inactive"}
{"gene symbol": "CTSC (cathepsin C)", "PubChem SID": "SID131513739", "two-siRNA summed score (-2 to +2)": 0, "Outcome": "inactive"}
{"gene symbol": "CNOT12 (CCR4-NOT transcription complex subunit 12)", "PubChem SID": "SID131510321", "two-siRNA summed score (-2 to +2)": 0, "Outcome": "inactive"}
{"gene symbol": "KCNJ10 (potassium inwardly rectifying channel subfamily J member 10)", "PubChem SID": "SID131507198", "two-siRNA summed score (-2 to +2)": 0, "Outcome": "inactive"}
{"gene symbol": "MMP26 (matrix metallopeptidase 26)", "PubChem SID": "SID131501032", "two-siRNA summed score (-2 to +2)": -1, "Outcome": "inactive"}
{"gene symbol": "LINC00608 (long independently transcribed non-coding RNA 608)", "PubChem SID": "SID131513627", "two-siRNA summed score (-2 to +2)": 0, "Outcome": "inactive"}
{"gene symbol": "CIITA (class II major histocompatibility complex transactivator)", "PubChem SID": "SID131520512", "two-siRNA summed score (-2 to +2)": 1, "Outcome": "inactive"}
{"gene symbol": "CARD6 (caspase recruitment domain family member 6)", "PubChem SID": "SID131516634", "two-siRNA summed score (-2 to +2)": 0, "Outcome": "inactive"}
{"gene symbol": "SLC25A1", "PubChem SID": "SID131505315", "two-siRNA summed score (-2 to +2)": 0, "Outcome": "inactive"}
{"gene symbol": "WNK1 (WNK lysine deficient protein kinase 1)", "PubChem SID": "SID131504477", "two-siRNA summed score (-2 to +2)": 0, "Outcome": "inactive"}
{"gene symbol": "WNK1 (WNK lysine deficient protein kinase 1)", "PubChem SID": "SID131521322", "two-siRNA summed score (-2 to +2)": 1, "Outcome": "inactive"}
{"gene symbol": "LINC01226 (long independently transcribed non-coding RNA 1226)", "PubChem SID": "SID131507710", "two-siRNA summed score (-2 to +2)": 0, "Outcome": "inactive"}
{"gene symbol": "LOC257039", "PubChem SID": "SID131508783", "two-siRNA summed score (-2 to +2)": 0, "Outcome": "inactive"}
{"gene symbol": "MGC26484", "PubChem SID": "SID131520209", "two-siRNA summed score (-2 to +2)": 1, "Outcome": "inactive"}
{"gene symbol": "TAGAP (T cell activation RhoGTPase activating protein)", "PubChem SID": "SID131502233", "two-siRNA summed score (-2 to +2)": -1, "Outcome": "inactive"}
{"gene symbol": "PAK1IP1 (PAK1 interacting protein 1)", "PubChem SID": "SID131507585", "two-siRNA summed score (-2 to +2)": 0, "Outcome": "inactive"}
{"gene symbol": "LINC00937 (long independently transcribed non-coding RNA 937)", "PubChem SID": "SID131506946", "two-siRNA summed score (-2 to +2)": 0, "Outcome": "inactive"}
{"gene symbol": "FANCI (FA complementation group I)", "PubChem SID": "SID131519502", "two-siRNA summed score (-2 to +2)": 1, "Outcome": "inactive"}
{"gene symbol": "POC1A (POC1 centriolar protein A)", "PubChem SID": "SID131502001", "two-siRNA summed score (-2 to +2)": -1, "Outcome": "inactive"}
{"gene symbol": "SCN9A (sodium voltage-gated channel alpha subunit 9)", "PubChem SID": "SID131506761", "two-siRNA summed score (-2 to +2)": 0, "Outcome": "inactive"}
{"gene symbol": "ELAC1 (elaC ribonuclease Z 1)", "PubChem SID": "SID131511446", "two-siRNA summed score (-2 to +2)": 0, "Outcome": "inactive"}
{"gene symbol": "DHRS4 (dehydrogenase/reductase 4)", "PubChem SID": "SID131504140", "two-siRNA summed score (-2 to +2)": 0, "Outcome": "inactive"}
{"gene symbol": "ARG99", "PubChem SID": "SID131522367", "two-siRNA summed score (-2 to +2)": 1, "Outcome": "inactive"}
{"gene symbol": "LRRC8E (leucine rich repeat containing 8 VRAC subunit E)", "PubChem SID": "SID131505493", "two-siRNA summed score (-2 to +2)": 0, "Outcome": "inactive"}
{"gene symbol": "LOC441617", "PubChem SID": "SID131518642", "two-siRNA summed score (-2 to +2)": 0, "Outcome": "inactive"}
{"gene symbol": "PARP2 (poly(ADP-ribose) polymerase 2)", "PubChem SID": "SID131510523", "two-siRNA summed score (-2 to +2)": 0, "Outcome": "inactive"}
{"gene symbol": "ERGIC2 (ERGIC and golgi 2)", "PubChem SID": "SID131505879", "two-siRNA summed score (-2 to +2)": 0, "Outcome": "inactive"}
{"gene symbol": "LUZP4 (leucine zipper protein 4)", "PubChem SID": "SID131508493", "two-siRNA summed score (-2 to +2)": 0, "Outcome": "inactive"}
{"gene symbol": "LOC441859", "PubChem SID": "SID131514587", "two-siRNA summed score (-2 to +2)": 0, "Outcome": "inactive"}
{"gene symbol": "MAPK7 (mitogen-activated protein kinase 7)", "PubChem SID": "SID131521750", "two-siRNA summed score (-2 to +2)": 1, "Outcome": "inactive"}
{"gene symbol": "MCTP1 (multiple C2 and transmembrane domain containing 1)", "PubChem SID": "SID131508118", "two-siRNA summed score (-2 to +2)": 0, "Outcome": "inactive"}
{"gene symbol": "SFRP1 (secreted frizzled related protein 1)", "PubChem SID": "SID131513196", "two-siRNA summed score (-2 to +2)": 0, "Outcome": "inactive"}
{"gene symbol": "ANKRD1 (ankyrin repeat domain 1)", "PubChem SID": "SID131504601", "two-siRNA summed score (-2 to +2)": 0, "Outcome": "inactive"}
{"gene symbol": "SURF1 (SURF1 cytochrome c oxidase assembly factor)", "PubChem SID": "SID131506640", "two-siRNA summed score (-2 to +2)": 0, "Outcome": "inactive"}
